Here are results for one substance from article PMC4625156.

By UniProt entry, the sequences of proteins in these tests, tags left out.
UniProt P62993: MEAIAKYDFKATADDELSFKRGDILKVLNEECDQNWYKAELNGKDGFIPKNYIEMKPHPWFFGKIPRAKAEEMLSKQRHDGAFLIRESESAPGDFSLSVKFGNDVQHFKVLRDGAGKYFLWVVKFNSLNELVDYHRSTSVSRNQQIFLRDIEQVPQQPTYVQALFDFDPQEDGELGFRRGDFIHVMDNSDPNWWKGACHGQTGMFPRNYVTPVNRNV
UniProt P23727: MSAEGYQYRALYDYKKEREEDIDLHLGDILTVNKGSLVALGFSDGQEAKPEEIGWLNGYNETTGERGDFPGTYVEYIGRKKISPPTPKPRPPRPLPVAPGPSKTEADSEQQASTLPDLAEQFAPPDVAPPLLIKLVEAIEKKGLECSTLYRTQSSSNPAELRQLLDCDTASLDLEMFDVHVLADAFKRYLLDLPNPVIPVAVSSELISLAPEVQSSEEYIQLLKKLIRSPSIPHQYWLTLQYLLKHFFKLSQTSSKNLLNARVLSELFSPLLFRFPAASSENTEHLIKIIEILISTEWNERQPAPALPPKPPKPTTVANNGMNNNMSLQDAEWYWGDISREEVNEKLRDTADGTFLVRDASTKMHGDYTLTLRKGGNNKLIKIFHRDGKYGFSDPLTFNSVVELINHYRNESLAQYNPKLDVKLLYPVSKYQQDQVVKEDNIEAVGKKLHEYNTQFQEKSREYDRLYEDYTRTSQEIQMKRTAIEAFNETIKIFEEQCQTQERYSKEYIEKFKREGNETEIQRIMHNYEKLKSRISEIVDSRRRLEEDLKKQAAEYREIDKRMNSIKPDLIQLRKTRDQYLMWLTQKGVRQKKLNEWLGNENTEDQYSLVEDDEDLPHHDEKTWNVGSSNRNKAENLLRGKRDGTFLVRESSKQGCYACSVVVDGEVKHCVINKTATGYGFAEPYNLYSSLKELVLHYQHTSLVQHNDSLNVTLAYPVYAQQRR

Results are given in words; binding and its absence hold for the method and conditions named. In cells and extracts the contact can be indirect. Some results given as binding are weak or reduced against the parent protein; the word gives no strength.

Test [1] concerns the target GST-Grb2 (Growth factor receptor-bound protein 2) (UniProt P62993). As to the kind of experiment: pull-down; 10 μl GST-Grb2 beads incubated overnight at 4 °C with 50 μl RIPA/PBS lysate of virulent or attenuated Theileria-infected macrophages (untreated or treated with the control penetrating peptide PEN); blot with anti-p85 or anti-TGFβ RII; only the target purified.
For test [2] the target is unchanged. As to the kind of experiment: condition: only virulent macrophages treated with 1 μM peptidimer-c; pull-down; as a1, but lysate of virulent macrophages treated with the Grb2-SH3 competitive peptide peptidimer-c (1 μM, 1 h, 37 °C) before lysis; only the target purified.
Test [3] has the same target. In words: pull-down; as a1, but lysate of virulent macrophages treated with the Grb2-SH3 competitive peptide peptidimer-c (1 μM, 1 h, 37 °C) before lysis; only the target purified.

In the case of “p85 regulatory subunit of PI3-K (from UniProt P23727 1-724)”, the binding result in test [1] is given as “binds”; in test [2] it was “no binding”; in test [3] it was “binds”.
